This note sets out measurements from PubChem BioAssay AID276 (DTP/NCI, 2004).

The list is a part of this screen's results and no random one: its compounds were picked by chemical class. Other doses and runs of a compound may be missing. T/C gives the treated animals as a percentage of the vehicle group. Where survival is the endpoint, the PubChem record calls one and a half times the control and up active, and a quarter to a half above the control has no call in these data; cut-offs in other NCI protocols can differ. Schedule codes are those of the source, taken here to give the interval after Q, in days (D) or hours (H), and the number of doses after X. Some entries show no survivor count and are marked so; the dose need not have been tolerated. Some entries hold several experiments; the results are listed from low to high.

This experiment concerns B6C3F1 mice, Lewis lung carcinoma iv, survival T/C. Briefly: NCI In Vivo Anticancer Drug Screen. Data for tumor model Lewis Lung Carcinoma (intravenous) in B6C3F1 mice. The settings on record: T/C endpoint: median survival time, schedule: Q01DX009 (ip), higher T/C = longer survival. Here is the method:
The antitumor activity of compounds was measured in mice bearing transplantable tumors. Survival or tumor size were measured and the results are expressed as the measurement made in the treated group (T) divided by the measurement made in the vehicle treated control group (C). The tumor model used in this assay is Lewis Lung Carcinoma (intravenous) in B6C3F1 mice

Regarding `CC(=O)OCC12CCC(C)=CC1OC1C(O)C(OC(C)=O)C2(C)C12CO2` (configuration not stated), the T/C (dose: 1.0 mg/kg/injection, vehicle: Klucel (hydroxypropylcellulose) (HPC)) was 104 % of control [survivor count not shown]; the T/C (dose: 1.0 mg/kg/injection, vehicle: suspension in saline) is 99 % of control [survivor count not shown]; the T/C (dose: 2.0 mg/kg/injection, vehicle: Klucel (hydroxypropylcellulose) (HPC)) is 110 [survivor count not shown] and 114 % of control [survivor count not shown]; the T/C (dose: 2.0 mg/kg/injection, vehicle: suspension in saline) was 110 % of control [survivor count not shown].
As to `CC1=C[C@H]2O[C@@H]3C[C@H]4OC(=O)/C=C\C=C\C(C(C)O)OCC[C@@H](C)[C@H](O)C(=O)OC[C@@]2(CC1)[C@]4(C)[C@]31CO1` (some centres not stated), the T/C was 92 % of control [survivor count not shown] (dose: 0.03 mg/kg/injection, vehicle: Klucel (hydroxypropylcellulose) (HPC)); 108 % of control [survivor count not shown] (dose: 0.06 mg/kg/injection, vehicle: Klucel (hydroxypropylcellulose) (HPC)); 103 % of control [survivor count not shown] (dose: 0.13 mg/kg/injection, vehicle: Klucel (hydroxypropylcellulose) (HPC)).
Take `CC1=C[C@H]2O[C@@H]3[C@H](O)[C@@H](O)[C@](C)([C@@]2(CO)CC1)[C@@]31CO1`: the T/C reads like this: (dose: 0.25 mg/kg/injection, vehicle: saline) 104 % of control [survivor count not shown]; (dose: 0.5 mg/kg/injection, vehicle: saline) 105 % of control [survivor count not shown]; (dose: 1.0 mg/kg/injection, vehicle: saline) 100 % of control [survivor count not shown]; (dose: 2.0 mg/kg/injection, vehicle: saline) 109 % of control [survivor count not shown]; (dose: 4.0 mg/kg/injection, vehicle: saline) 115 % of control [survivor count not shown].
In the case of `CC(=O)OC[C@]12CC(=O)C(C)=C[C@H]1O[C@@H]1C(=O)[C@@H](OC(C)=O)[C@@]2(C)[C@@]12CO2`, the T/C was 106 % of control [survivor count not shown] (dose: 0.12 mg/kg/injection, vehicle: water); 95 % of control [survivor count not shown] (dose: 0.25 mg/kg/injection, vehicle: water); 106 % of control [survivor count not shown] (dose: 0.5 mg/kg/injection, vehicle: water); 103 % of control [survivor count not shown] (dose: 1.0 mg/kg/injection, vehicle: water); 106 % of control [survivor count not shown] (dose: 2.0 mg/kg/injection, vehicle: water).
